Article PMC7819943, “Rice protein-binding microarrays: a tool to detect cis-acting elements near promoter regions in rice”
The list shows a part of the results.

Sequences of proteins named here, by UniProt entry; tags and fusion partners are left off.
UniProt Q0JBA9, entry or part of it: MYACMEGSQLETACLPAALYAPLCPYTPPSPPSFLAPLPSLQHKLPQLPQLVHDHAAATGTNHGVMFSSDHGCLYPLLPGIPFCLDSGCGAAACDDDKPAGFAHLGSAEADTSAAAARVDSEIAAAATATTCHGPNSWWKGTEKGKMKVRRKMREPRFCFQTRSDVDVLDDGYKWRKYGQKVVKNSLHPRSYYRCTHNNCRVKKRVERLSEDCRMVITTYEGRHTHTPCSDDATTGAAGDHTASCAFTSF

These sequences were tested against OsWRKY34 (Oryza sativa, UniProt Q0JBA9 1-250) (assay: protein-binding microarray (RPBM); PBS, 2% BSA, 51.3 ng/ul salmon testes DNA, 50 uM zinc acetate, 200 nM TF, 25 C, 1 h; high values mean tight binding). Settings: protein: recombinant; tags: N-terminal polyhistidine and DsRed monomer fusion (pET32a); label: CyDye5-dUTP incorporated in the synthesized complementary strand; 3' TTTTT single-stranded linker to array surface; dsDNA, one strand shown.
Procedure, shortened: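 Transcription factors were made in E. coli BL21-CodonPlus as N-terminal fusions to a polyhistidine tag and DsRed, then purified on Ni–NTA. After primer extension with Cy5-dUTP and blocking with 2% BSA, a custom Agilent array was exposed for 1 h at 25 °C to 200 nM protein in PBS, 2% BSA, salmon testes DNA and 50 µM zinc acetate. Washed arrays were scanned on an Axon 4000B, and the binding signal is per-feature fluorescence intensity in arbitrary units.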
“CAACTTCTTGCTCTTTAACAGCGTAACTTACTTTGTATTGCGGAGTCACCTAGTGCAG” was tested, and the binding signal was 9520 fluorescence intensity (a.u.). With “TCTGCGCTCCCGCATGCCGGCCGCTGAATCATCGTCAATCCGGAGTCACCTAGTGCAG” the binding signal was 9000 fluorescence intensity (a.u.). “GCACATATAATCACCGGTTCTTCTGTAATGCAATGATACGCGGAGTCACCTAGTGCAG” was tested, and the binding signal was 8730 fluorescence intensity (a.u.). “CTACGCGATGCCATCTCACCGATCCCCACCGCTCGCATCCCGGAGTCACCTAGTGCAG” was tested, and the binding signal was 11700 fluorescence intensity (a.u.). With “TTGGTGGGCCGTTATTTTGTTTGGGCTGGATTTGCACGTTCGGAGTCACCTAGTGCAG” the binding signal was 11700 fluorescence intensity (a.u.). In the case of “TTAACCCCTAGCATAGTTTTGATAGACCTCGTACAAATCTCGGAGTCACCTAGTGCAG”, the binding signal is reported as 8300 fluorescence intensity (a.u.). “CTCTGCTCTCACTTGAACACCTGGTCCCATGGATTGCCTACGGAGTCACCTAGTGCAG” was tested, and the binding signal was 13900 fluorescence intensity (a.u.). “CCTTTTATTTTCGATCTTACTTATCATTCTTCTCCACCTTCGGAGTCACCTAGTGCAG” was tested, and the binding signal was 8770 fluorescence intensity (a.u.). With “GATGGTGAGGTTGGCGTGTAGGTGCGGGCAGCTGTTGTTTCGGAGTCACCTAGTGCAG” the binding signal was 9450 fluorescence intensity (a.u.). “TATGGTTTCTTGCTGATTTCTTATCTCTACCGGTGTTTATCGGAGTCACCTAGTGCAG” was tested, and the binding signal was 13300 fluorescence intensity (a.u.). In the case of “ACATTTTGTGAGTCGGACCACCTATACCCTAAATTTTAGACGGAGTCACCTAGTGCAG”, the binding signal is reported as 10100 fluorescence intensity (a.u.). “CCGACCCAGATCCACCCGGATTCTTATCCCGTACGGCACCCGGAGTCACCTAGTGCAG” was tested, and the binding signal was 8280 fluorescence intensity (a.u.). For “ACCCTATCGTATTTAATTTTCCATAATGACTATCCCTGCACGGAGTCACCTAGTGCAG”, the binding signal was 9160 fluorescence intensity (a.u.). In the case of “GCTGTTTCTCTCTCAACTGCTTCACACTGTTGCTCTCTTCCGGAGTCACCTAGTGCAG”, the binding signal is reported as 11300 fluorescence intensity (a.u.). “GTCCTTGGGGCTCTATATATACCTCGTTTCTCCAGGCCGGCGGAGTCACCTAGTGCAG” was tested, and the binding signal was 8400 fluorescence intensity (a.u.). With “GATGGGAGACATGTTGCGTCGTTCCCTTACCGCACTGTAACGGAGTCACCTAGTGCAG” the binding signal was 8240 fluorescence intensity (a.u.). With “ATATTGCCTCTTCCATGCGCCCACTTGCTCGGTTGAACAACGGAGTCACCTAGTGCAG” the binding signal was 11800 fluorescence intensity (a.u.). With “TCTCTCCAAGTCAAAGCGTGACCTGGTCGTTGACTTGAGACGGAGTCACCTAGTGCAG” the binding signal was 12400 fluorescence intensity (a.u.). In the case of “CTAGGACATCATTTTGTTTGTCGTGTGTGCGCAACTGTTTCGGAGTCACCTAGTGCAG”, the binding signal is reported as 8160 fluorescence intensity (a.u.). In the case of “CTCCCCACCCTACCCCGTCGTCTCCGTTCGCGCGCATCCACGGAGTCACCTAGTGCAG”, the binding signal is reported as 9730 fluorescence intensity (a.u.). In the case of “ATCAATTTGTTATTGTGTGCCTCGGCTGATTCCTGGACGACGGAGTCACCTAGTGCAG”, the binding signal is reported as 8850 fluorescence intensity (a.u.). For “GCTCGCTCGCTCGCTCGCTCCGTCTTGTGGTCGCCGCCGCCGGAGTCACCTAGTGCAG”, the binding signal was 9160 fluorescence intensity (a.u.). In the case of “AGAACCCCGCATCCCACTTCTTCCAGGCTCCAGCTCTTCTCGGAGTCACCTAGTGCAG”, the binding signal is reported as 9110 fluorescence intensity (a.u.). In the case of “ATGCCTATGATGCCTATATCATGATTGTTATAATATTTTACGGAGTCACCTAGTGCAG”, the binding signal is reported as 8600 fluorescence intensity (a.u.). “CCACAACTAACCTGTAGACTGTCTTGCACCACCTCCTGACCGGAGTCACCTAGTGCAG” was tested, and the binding signal was 9760 fluorescence intensity (a.u.). In the case of “TGTACTAGTTAGCTATATTTTGGGACGGGGAAGTATCTTACGGAGTCACCTAGTGCAG”, the binding signal is reported as 9930 fluorescence intensity (a.u.). In the case of “GGTCATGGTTTTGGCACGCTTGGATTTGACGCCGCCGGCACGGAGTCACCTAGTGCAG”, the binding signal is reported as 9760 fluorescence intensity (a.u.). For “AAAATCGTCATTTAATGCCTATTACTTAGTTGGCCCTTGTCGGAGTCACCTAGTGCAG”, the binding signal was 8050 fluorescence intensity (a.u.). With “TGAATTTTTTTTTCTTTTTCTTCCCTGCTCTCTCTATAATCGGAGTCACCTAGTGCAG” the binding signal was 8030 fluorescence intensity (a.u.). With “GGATAGATTTCATTTCGTATTAATGGGCTGTTCTTGGTTTCGGAGTCACCTAGTGCAG” the binding signal was 8720 fluorescence intensity (a.u.). In the case of “CTGTCCTCACTGCATTAAGGGTTTTTTGGCCCCGTTTATTCGGAGTCACCTAGTGCAG”, the binding signal is reported as 8080 fluorescence intensity (a.u.). For “CCTTTTCTCATCTCTCTCTCCTTTCTTTTTAAATTTTATTCGGAGTCACCTAGTGCAG”, the binding signal was 10100 fluorescence intensity (a.u.). With “CTCTCTCTCTCTCTCTCTCTCGCGCGCGCGCGCGCGCAAGCGGAGTCACCTAGTGCAG” the binding signal was 9220 fluorescence intensity (a.u.). In the case of “ATTCACCTTAACCAACCTCAATCTGGCATAACACTCAATCCGGAGTCACCTAGTGCAG”, the binding signal is reported as 8100 fluorescence intensity (a.u.). “TTGAATAAATTTGACTAGAAAAAAAGTCAAACGACTTACACGGAGTCACCTAGTGCAG” was tested, and the binding signal was 9300 fluorescence intensity (a.u.). “TCCGGGCTGGGTGGGTGGGGTGGGGATGGAGCTTGCCTGGCGGAGTCACCTAGTGCAG” was tested, and the binding signal was 24100 fluorescence intensity (a.u.). With “AATTCGTACTTTTTCCTTTGTGTTTTGTCTATCTTAAATTCGGAGTCACCTAGTGCAG” the binding signal was 14300 fluorescence intensity (a.u.). “CTCTCTCTCTCTCTCTCTCTCTCTCTCTTCGCCGCGCGGCCGGAGTCACCTAGTGCAG” was tested, and the binding signal was 18300 fluorescence intensity (a.u.). In the case of “GAACCCTTCTTCTCTTCTCGTTCCTGCTGTTTCTTGTCTGCGGAGTCACCTAGTGCAG”, the binding signal is reported as 8200 fluorescence intensity (a.u.). “AAACGGCAAAACACCAACCATTTCCTGAACTACGCTCTGACGGAGTCACCTAGTGCAG” was tested, and the binding signal was 9340 fluorescence intensity (a.u.). With “CGTTTCACAATGTAAGTCATTATAATATTTCCCACATGCACGGAGTCACCTAGTGCAG” the binding signal was 9350 fluorescence intensity (a.u.). For “TGCTCGCCCGTCGTGTGGACATTTTTTTTTCGGGGTTTTTCGGAGTCACCTAGTGCAG”, the binding signal was 14900 fluorescence intensity (a.u.).
